Test results as given in paper PMC5157023.
Results are given in words; binding and its absence hold for the method and conditions named. In cells and extracts the contact can be indirect. Some entries that bind do so weakly or less than the wild type. Sequences can lack the tags named with a protein.

Molecular target: V5-tagged RE-1 silencing transcription factor (REST) (UniProt Q13127)
Assay: co-IP; V5 antibody-conjugated beads mixed with lysates of HEK293FT cells transfected with pcDNA_V5 or pcDNA_REST-V5; western blot of endogenous partners; lysis buffer 50 mM Tris-HCl pH 7.4, 150 mM NaCl, 5 mM EDTA, 0.2% TritonX-100, 15 U/ml DNAse I

B1: HnRNP Q (protein, UniProt O60506 1-623)
chain: MATEHVNGNGTEEPMDTTSAVIHSENFQTLLDAGLPQKVAEKLDEIYVAGLVAHSDLDERAIEALKEFNEDGALAVLQQFKDSDLSHVQNKSAFLCGVMKTYRQREKQGTKVADSSKGPDEAKIKALLERTGYTLDVTTGQRKYGGPPPDSVYSGQQPSVGTEIFVGKIPRDLFEDELVPLFEKAGPIWDLRLMMDPLTGLNRGYAFVTFCTKEAAQEAVKLYNNHEIRSGKHIGVCISVANNRLFVGSIPKSKTKEQILEEFSKVTEGLTDVILYHQPDDKKKNRGFCFLEYEDHKTAAQARRRLMSGKVKVWGNVGTVEWADPIEDPDPEVMAKVKVLFVRNLANTVTEEILEKAFSQFGKLERVKKLKDYAFIHFDERDGAVKAMEEMNGKDLEGENIEIVFAKPPDQKRKERKAQRQAAKNQMYDDYYYYGPPHMPPPTRGRGRGGRGGYGYPPDYYGYEDYYDYYGYDYHNYRGGYEDPYYGYEDFQVGARGRGGRGARGAAPSRGRGAAPPRGRAGYSQRGGPGSARGVRGARGGAQQQRGRGVRGARGGRGGNVGGKRKADGYNQPDSKRRQTNNQNWGSQPIAQQPLQGGDHSGNYGYKSENQEFYQDTFGQQWK
- binding: binds
